No constants are given. Whether binding was seen depends on the method and setting. In cells and extracts the contact can be indirect. Some results given as binding are weak or reduced against the parent protein; the word gives no strength.
Target: dedicator of cytokinesis 3 (DOCK3) (human (endogenous; the cell line is not named, all lines used are human)) (UniProt Q8IZD9)
Assay: co-IP; co-immunoprecipitation of endogenous proteins, Western blot

Chains of the proteins cited; added tags and fusions are not shown.
UniProt Q8IZD9: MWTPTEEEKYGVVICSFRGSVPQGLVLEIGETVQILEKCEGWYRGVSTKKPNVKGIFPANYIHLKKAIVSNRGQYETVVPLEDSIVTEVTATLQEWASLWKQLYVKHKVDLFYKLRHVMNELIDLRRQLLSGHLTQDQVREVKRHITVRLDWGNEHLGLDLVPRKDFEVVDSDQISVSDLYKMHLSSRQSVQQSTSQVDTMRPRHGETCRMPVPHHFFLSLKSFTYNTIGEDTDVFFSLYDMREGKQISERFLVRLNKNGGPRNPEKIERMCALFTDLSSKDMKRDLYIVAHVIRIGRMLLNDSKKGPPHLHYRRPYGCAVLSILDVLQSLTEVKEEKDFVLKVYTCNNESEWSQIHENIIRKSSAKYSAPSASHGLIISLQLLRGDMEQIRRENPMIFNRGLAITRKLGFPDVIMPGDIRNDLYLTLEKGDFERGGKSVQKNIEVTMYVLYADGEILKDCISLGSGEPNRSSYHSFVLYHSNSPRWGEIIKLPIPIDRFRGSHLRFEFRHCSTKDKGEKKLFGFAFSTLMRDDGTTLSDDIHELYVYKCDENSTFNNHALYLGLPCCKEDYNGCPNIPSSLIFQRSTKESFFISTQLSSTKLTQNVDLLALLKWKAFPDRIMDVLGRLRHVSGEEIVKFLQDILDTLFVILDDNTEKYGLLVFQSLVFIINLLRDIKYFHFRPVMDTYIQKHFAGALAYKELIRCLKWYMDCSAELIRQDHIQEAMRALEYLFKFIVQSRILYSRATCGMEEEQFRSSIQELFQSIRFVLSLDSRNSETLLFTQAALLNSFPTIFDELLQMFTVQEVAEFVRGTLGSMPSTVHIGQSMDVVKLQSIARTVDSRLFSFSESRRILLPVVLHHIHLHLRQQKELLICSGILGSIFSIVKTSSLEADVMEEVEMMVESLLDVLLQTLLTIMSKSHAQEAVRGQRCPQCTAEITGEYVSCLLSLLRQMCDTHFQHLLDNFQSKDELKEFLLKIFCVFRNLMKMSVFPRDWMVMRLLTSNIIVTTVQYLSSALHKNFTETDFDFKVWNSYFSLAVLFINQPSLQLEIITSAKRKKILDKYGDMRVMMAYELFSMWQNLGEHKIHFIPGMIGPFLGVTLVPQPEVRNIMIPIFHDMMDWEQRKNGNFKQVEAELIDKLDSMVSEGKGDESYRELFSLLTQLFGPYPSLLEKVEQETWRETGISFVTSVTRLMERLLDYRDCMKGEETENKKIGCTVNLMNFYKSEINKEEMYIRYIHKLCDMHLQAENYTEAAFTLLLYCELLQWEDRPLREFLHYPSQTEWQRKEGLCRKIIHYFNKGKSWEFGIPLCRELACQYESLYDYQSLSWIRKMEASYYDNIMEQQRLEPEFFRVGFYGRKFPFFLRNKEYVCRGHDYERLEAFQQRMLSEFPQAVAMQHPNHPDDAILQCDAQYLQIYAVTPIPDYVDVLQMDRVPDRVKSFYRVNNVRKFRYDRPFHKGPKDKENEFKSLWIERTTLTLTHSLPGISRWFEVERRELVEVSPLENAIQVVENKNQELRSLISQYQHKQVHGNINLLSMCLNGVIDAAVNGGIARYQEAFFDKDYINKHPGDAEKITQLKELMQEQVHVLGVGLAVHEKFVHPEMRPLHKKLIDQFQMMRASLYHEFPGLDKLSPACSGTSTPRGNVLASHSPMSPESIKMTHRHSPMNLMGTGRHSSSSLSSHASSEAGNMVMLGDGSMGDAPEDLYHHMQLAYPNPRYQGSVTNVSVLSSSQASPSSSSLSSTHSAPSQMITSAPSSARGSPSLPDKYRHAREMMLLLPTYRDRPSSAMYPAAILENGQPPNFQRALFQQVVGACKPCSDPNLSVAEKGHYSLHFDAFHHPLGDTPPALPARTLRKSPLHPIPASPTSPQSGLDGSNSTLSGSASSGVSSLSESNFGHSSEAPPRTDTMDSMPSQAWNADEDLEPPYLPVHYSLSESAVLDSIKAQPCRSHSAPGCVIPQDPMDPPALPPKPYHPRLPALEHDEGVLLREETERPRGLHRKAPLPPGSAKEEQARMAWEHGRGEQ
UniProt P61586: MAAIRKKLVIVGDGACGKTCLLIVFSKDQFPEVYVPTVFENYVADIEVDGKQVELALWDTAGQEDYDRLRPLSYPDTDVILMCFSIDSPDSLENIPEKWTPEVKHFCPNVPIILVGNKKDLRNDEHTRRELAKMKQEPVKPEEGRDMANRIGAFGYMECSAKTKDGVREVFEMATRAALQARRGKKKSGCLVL

binding: binds weakly
Substance: RhoA (from UniProt P61586 1-193)
